PubChem BioAssay AID504744 – Drosophila RNAi Screening Center, 2011
Aim: 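Uncover factors, including feedback loops, that control dAkt activation in fly cells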 (primary screen). Cells: Drosophila Kc167 cells. Knock-down reagent: long dsRNA against Drosophila genes, 250 ng dsRNA per well of a 384-well plate. Time to read-out: 3 days of knock-down, then overnight serum-free starvation before stimulation. Challenge: bovine insulin at 387 nM for 10 minutes after 12 h without serum. Measured: 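In-cell antibody fluorescence for phospho-dAkt in each well over DNA-dye signal, with log2 residuals expressed as z-scores adjusted for cell count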. Rule for the call: 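Hit in the insulin screen when the two-replicate mean z-score is more extreme than plus or minus 2.5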.
In all, the deposit lists about 23,000 reagents; shown is a random part of those that have a named target and a result. Of all reagents, 98 (0.43%) were called active. 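Only hit calls are given; the phospho-dAkt signals, z-scores and hit direction were not deposited.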 Reagents against one gene are numbered here.

dnd (dead end)
- call: inactive

CG7378
- call: inactive

kay (kayak) #1
- call: inactive

kay (kayak) #2
- call: inactive

kay (kayak) #3
- call: inactive

ATPsynGL (ATP synthase, subunit G-like)
- call: inactive

Frq2 (Frequenin 2)
- call: inactive

CG14961
- call: inactive

CG33752
- call: inactive

CG32354 #1
- call: inactive

CG32354 #2
- call: inactive

CG32354 #3
- call: inactive

comr (cookie monster)
- call: inactive

GNBP2 (Gram-negative bacteria binding protein 2)
- call: inactive

Toll-9
- call: inactive

RtcB (RtcB RNA ligase)
- call: inactive

mey (morpheyus)
- call: inactive

Mst85C
- call: inactive

CG34159
- call: inactive

CG34268
- call: inactive

rumpel
- call: inactive

fz4 (frizzled 4)
- call: inactive

CG31111
- call: inactive
